Literature values as cited in patent US20090247603A1, “Stabilized pharmaceutical compositions comprising an HMG-CoA reductase inhibitor” (Orbus Pharma, Inc., priority 2005, published 2009).

Settings: after oral administration

## CC(C)c1c(C(=O)Nc2ccccc2)c(-c2ccccc2)c(-c2ccc(F)cc2)n1CC[C@@H](O)C[C@@H](O)CC(=O)[O-].CC(C)c1c(C(=O)Nc2ccccc2)c(-c2ccccc2)c(-c2ccc(F)cc2)n1CC[C@@H](O)C[C@@H](O)CC(=O)[O-].[Ca+2] (relative stereo) [atorvastatin calcium, (R—(R*,R*))-2-(4-fluorophenyl)-[beta],[delta]-dihydroxy-5-(1-methylethyl)-3-phenyl-4((phenylamino)carbonyl)-1H-pyrole-1-heptanoic acid hemi calcium salt]
  time of maximum plasma concentrations: 1 to 2 h
